Data from publication PMC10193809, “A small protein coded within the mitochondrial canonical gene nd4 regulates mitochondrial bioenergetics” (BMC Biology, 2023).

Chains of the proteins cited; added tags and fusions are not shown. Residues count along the entry.
UniProt Q07021, residues 74-282: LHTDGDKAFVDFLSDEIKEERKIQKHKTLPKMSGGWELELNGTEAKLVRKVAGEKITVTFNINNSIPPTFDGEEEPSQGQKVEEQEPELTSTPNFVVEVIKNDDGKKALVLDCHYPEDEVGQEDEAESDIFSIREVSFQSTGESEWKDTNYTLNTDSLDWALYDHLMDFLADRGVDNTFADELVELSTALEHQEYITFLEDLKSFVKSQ

What was measured:
[1] = molecular target: T1, endogenous MTALTND4 (human (endogenous in HeLa)); test: affinity purification with mass spectrometry; immunoprecipitation from HeLa cell lysates (10 mM HEPES, 150 mM NaCl, Triton X-100) with rabbit anti-MTALTND4 and protein A agarose, 4 °C overnight; pre-immune serum as control; mass spectrometry
T1 sequence: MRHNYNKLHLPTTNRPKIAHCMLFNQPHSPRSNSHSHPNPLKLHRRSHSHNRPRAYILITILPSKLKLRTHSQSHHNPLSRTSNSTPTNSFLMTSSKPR

GST-MTALTND4 (human) = molecular target: T2, GST-MTALTND4 (human); test: affinity purification with mass spectrometry; GST-MTALTND4 pre-coupled to glutathione sepharose beads (10 µg) with 1 ml pre-cleared HeLa or HEK-293T lysate, 4 °C overnight, 6 washes; mass spectrometry; only the target purified
T2 sequence: T1 sequence

binding [1]: binds
binding (GST-MTALTND4 (human)): binds
Substance: complement component 1q subcomponent binding protein (C1qbp) (from UniProt Q07021 74-282)

These are yes or no findings as the source states them, for the method shown. In cells and extracts the contact can be indirect. Here binding means that the protein was enriched with, or labelled near, the bait; the list need not be complete. For some assays here: Where a sequence is shown, tags or fusion partners need not be part of it.
